Reference: PubChem BioAssay AID2417 (National Center for Advancing Translational Sciences (NCATS), 2010)
About 4,300 (3.1%) of roughly 140,000 compounds were called active. This list was built around the results that the source calls inconclusive (neither active nor inactive); the mix of calls is not that of the screen.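 The calls were made as follows: active = readout at or below -70, meaning at least 70% loss of cells showing the perinucleolar compartment, a nuclear body marking cancer cells; inconclusive = readout between -30 and a set limit; inactive = the rest.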

Experiment: High Content Assay for Compounds that inhibit the Assembly of the Perinucleolar Compartment;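 also: plate controls were DMSO wells for no effect and camptothecin positive control wells for full effect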
Settings: PC3M PTB-GFP, PNC prevalence imaging, 16 h; at 10 µM; hits give low values
Outline: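 Compounds are pinned in duplicate onto adhered PC3M cells stably expressing GFP-tagged PTB and incubated 16 h at 37 C. Cells are then fixed, nuclei stained with Hoechst, and PNC-positive cells counted.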

SMILES	activity change (PNC), negative = inhibition
O=C(COc1cccc(C(F)(F)F)c1)Nc1ccc(S(=O)(=O)N2CCCC2)cc1	inconclusive: -49.8%
c1ccc(-c2ccc(-c3ccccn3)nn2)nc1	inactive: -11.9%
Cc1cc2oc(=O)cc(Cn3nnc(-c4ccc(Cl)cc4)n3)c2cc1C(C)C	inconclusive: -69.4%
C/C(CC(=O)Nc1ccc(N(C)C)cc1)=N\NC(=O)c1cnccn1	inconclusive: -44.2%
COCCNC(=O)CN1C(=O)CSc2ncccc21	inconclusive: -45%
Cc1cc(C(=O)Nc2cccc([N+](=O)[O-])c2)c(C)o1	active: -109%
CN(C)c1nc(N)nc(CSc2ncc(Cl)cc2Cl)n1	inconclusive: -43.7%
N#CCSc1nc2ccc(N3CCCCC3)cc2c(=O)n1Cc1ccccc1	inactive: 14.9%
CC(CCc1ccccc1)NC(=O)c1ccco1 (stereo unspecified)	inactive: 21.5%
CC(=O)NC1=C(C#N)C(c2ccccc2)c2c(ccc3ccccc23)O1 (stereo unspecified)	inactive: -24.7%
Cc1ccc2c(Cl)cc(Cl)c(OCC(=O)Nc3cccc(S(=O)(=O)N(C)C)c3)c2n1	inconclusive: -39.5%
CCS(=O)(=O)NCCc1csc(-c2cccnc2)n1	inconclusive: -48.9%
COc1cccc(OC)c1C(=O)Nc1ccc(N2CCCCC2)cc1	inconclusive: -71.8%
CCOc1cc(/C=C(/C#N)C(=O)Nc2ccc(O)cc2)cc(Br)c1O	inconclusive: -60.4%
COc1ccc(NC(=O)CCn2nc(C)cc2C)cc1	inconclusive: -48.4%
O=C(c1cn(-c2ccccc2)nc1-c1cccs1)N1CCN(c2ccc(F)cc2)CC1	active: -109%
COc1ccc(Nc2nc(N)nc(CSc3nnc(N)s3)n2)cc1	active: -96.1%
O=C(Nc1ccc(Cl)cc1)Nc1nnc(SCc2ccc(Cl)cc2)s1	active: -111%
CCCCSc1nnc(NC(=O)CCc2ccccc2)s1	active: -81%
COc1cccc(NC(=O)c2nnn(Cc3ccc(Br)cc3F)c2N)c1	inconclusive: -62.6%
C=CCN(CC=C)c1nc2ccccc2nc1C(C#N)C(=O)OC(C)C (stereo unspecified)	inconclusive: -40.1%
CCOC(=O)C(=O)Nc1cccc(C(=O)OCC)c1	inconclusive: -30.5%
O=C(O)c1ccc(CSc2nc(-c3ccccc3)cc(C(F)(F)F)n2)cc1	inconclusive: -40.2%

SMILES	activity change (PNC), negative = inhibition
CCN(C(=O)[C@@H]1CCCN1C(=O)c1cccs1)c1nc2cc(Cl)ccc2s1	inactive: 88.9%
CC(=O)Nc1ccccc1-c1nc2ccccc2nc1OCC(=O)c1ccc(Br)cc1	inconclusive: -65.6%
CC(C)NS(=O)(=O)c1ccc(CCC(=O)Nc2ccc3c(c2)OCO3)cc1	inconclusive: -47.3%
COCCNC(=O)c1snc2ccc(Cl)cc12	inconclusive: -50.5%
Cc1ccc(CCNC(=O)c2coc3nc4ccccc4nc23)cc1	inconclusive: -36.1%
Nn1cnnc1SC1CCCCC1NS(=O)(=O)c1ccccc1 (stereo unspecified)	inconclusive: -39.8%
O=C(Nc1nc2nc(-c3ccccc3)cc(-c3ccccc3)n2n1)c1ccco1	inconclusive: -42.5%
Cc1ccc(OC(=S)Nc2ccc(O)cc2)cc1	inconclusive: -37.6%
CN(C)c1cccc(C(=O)NCC2CCCO2)c1 (stereo unspecified)	inconclusive: -45.1%
COc1cccc(=O)c2c(C)n(C)c(C)c12	inconclusive: -65.2%
O=C(NCc1ccccc1)C(=O)NCC1OCCN1S(=O)(=O)c1cccs1 (stereo unspecified)	inconclusive: -43.9%
O=C1CSC2=NCN(c3ccc4c(c3)OCO4)CN12	inactive: 42.2%
O=C(NCc1cccs1)c1ccc(CS(=O)(=O)c2ccc(Cl)cc2)o1	inconclusive: -53.1%
Cc1ccc(S(=O)(=O)NCC(=O)N(CCc2ccccc2)CC(=O)NCc2ccco2)cc1	inactive: -15.6%
COc1cccc(OCC(=O)NC2CCCCC2)c1	inconclusive: -31.3%
CC1=C(C(N)=O)C(c2ccc(Cl)cc2)NC(=O)N1 (stereo unspecified)	inconclusive: -56.4%
c1ccc2[nH]c(-c3cscn3)nc2c1	inactive: 27.1%
CCCCC1CC(CSC(=N)N)OC1=O (stereo unspecified)	inconclusive: -41.9%
O=C(O)CN(c1ccc2c(c1)OCCO2)S(=O)(=O)c1ccccc1	inconclusive: -62%
Cc1cc(OCC(=O)Nn2cnnc2)ccc1Br	inconclusive: -53.9%
N#Cc1cc([N+](=O)[O-])ccc1Oc1cccc(/C=N/NC(=O)c2ccc(Cl)cc2)c1	inconclusive: -54.8%
Cc1cc(Nc2ccccc2)nc(N)n1	inactive: -28.7%
O=C(N1CCCC1)n1c(Cc2ccccc2)nc2ccccc21	inconclusive: -70.5%

SMILES	activity change (PNC), negative = inhibition
C#CC[N+](C)(C)CCCCCCCCCC	inconclusive: -42.4%
O=C(Nc1ccc(OCC(=O)N2CCC(Cc3ccccc3)CC2)cc1)c1ccco1	inconclusive: -74.6%
CCCCn1c(SCc2cccc([N+](=O)[O-])c2)nc2ccsc2c1=O	inactive: 93.3%
Cc1ccc(C(NC(=O)C2CCCCC2)c2c(O)ccc3ccccc23)cc1 (stereo unspecified)	inconclusive: -37.5%
CC1(C)Cc2c(sc3c2C2=NCCN2C=N3)CS1	inactive: 9.66%
COc1ccc(NC(=O)C(NC(C)=O)C(=O)NCc2ccccc2Cl)cc1 (stereo unspecified)	inconclusive: -31.9%
O=C(NCc1ccccc1)/C(NC(=O)c1ccccc1)=C(/Sc1ccccn1)c1ccccc1	inconclusive: -55.8%
O=C(c1ccccc1)c1cc([N+](=O)[O-])ccc1N1CCOCC1	active: -112%
Cn1c(N)c(C(=O)COC(=O)CN2C(=O)c3ccccc3C2=O)c(=O)n(C)c1=O	inactive: 7.31%
CCOC(=O)c1ccc(NC(=O)CSc2nc3c(c(=O)n2CC)SC(C)C3)cc1 (stereo unspecified)	inconclusive: -53.7%
Cc1ccc(-n2ncc3c(NCCCN4CCCC4=O)ncnc32)c(C)c1	inconclusive: -41.8%
CCOc1ccc(NC(=O)/C=C/c2ccccc2)c([N+](=O)[O-])c1	inactive: 3%
Cc1ccc(S(=O)(=O)N(CC(=O)N/N=C/c2cccc3c2OCCO3)c2ccccc2F)cc1	inconclusive: -75.9%
Cc1cc(C)nc(NS(=O)(=O)c2ccc(NC(=O)c3cccs3)cc2)n1	inactive: -29.1%
COc1ccc(Cl)cc1-n1c(C)cc(C(=O)OCC(=O)N2CC(=O)Nc3ccccc32)c1C	inconclusive: -35.3%
CCC(c1nnnn1Cc1ccco1)N(Cc1cc2cc(C)cc(C)c2[nH]c1=O)CC1CCCO1 (stereo unspecified)	inactive: 3.97%
CC1CCCC(C)N1C(=O)Cn1c(SCC(=O)Nc2ccc3c(c2)OCO3)nc2ccccc21 (stereo unspecified)	inconclusive: -49.6%
CCOc1ccccc1C1C(C(N)=O)=C(C)Nc2nc(-c3cccc(C)c3)nn21 (stereo unspecified)	inconclusive: -39.5%
CCOC(=O)COn1c(=O)c(-c2ccco2)[n+]([O-])c2ccccc21	inactive: 3.75%
Nc1nnc(SCC(=O)c2ccc3ccccc3c2)s1	inactive: 16.2%
COc1ccc(-n2c(SCC(=O)NCc3cccs3)nnc2-c2ccoc2C)cc1	inconclusive: -68.5%
Cc1ccc(S(=O)(=O)NCCc2ccc(S(N)(=O)=O)cc2)cc1	inconclusive: -35.5%
Cc1ccc(C(C)(C)C)c(OCCOCCN2CCCC2)c1	inconclusive: -46.7%

SMILES	activity change (PNC), negative = inhibition
COc1ccc(/C=C/c2nnc(NC(=O)CSc3ccc(Cl)cc3)s2)cc1	inactive: 20.7%
Cc1nn(-c2ccccc2)c(N)c1Sc1cccc([N+](=O)[O-])c1	inactive: 5.09%
O=C1N=C(N2CCCCC2)SC1=C1CCCCC1	inactive: 10.7%
CCC(=O)Nc1ccc(C(=O)NNC(=O)COc2cccc(C)c2)cc1	inactive: 3.72%
O=C(NCCn1ccc2ccccc21)c1ccc(S(=O)(=O)N2CCCCC2)cc1	active: -81.1%
O=C(NC1CCCC1)c1ncn[nH]1	inconclusive: -51%
COc1ccc(NC(=O)N2CCN(S(C)(=O)=O)CC2)cc1OC	inconclusive: -30.6%
CCCCC(=O)Nc1ncc2c(n1)CC(C)(C)CC2=O	inconclusive: -33.6%
COc1ccc(Cl)cc1S(=O)(=O)N1CCN(C)CC1	inactive: 19.2%
COc1ccc(-c2ccnc(-c3ccc(OCCCF)cc3)n2)cc1	inconclusive: -66.8%
CCN(CCCNC(=O)c1c(C)cc(=O)oc1C)c1cccc(C)c1	inactive: 8.51%
COc1ccc(CCNC(=O)Cn2cnc3c(cnn3C(C)(C)C)c2=O)cc1OC	inconclusive: -51.4%
CC1Oc2ccccc2C=C1/C=N/NC(=O)c1ccccc1O (stereo unspecified)	inconclusive: -39.3%
COC(=O)[C@@]1(Cc2ccc(F)cc2)[C@H]2c3cc(C(=O)N(C)C)n(Cc4c(CO)[nH]cc(C)c4=O)c3C[C@H]2CN1C(=O)c1ccccc1	inactive: 13.6%
COc1ccc(NC(=O)c2cc3c(Cl)nc4ccccc4c3s2)cc1OC	active: -87.6%
COC(=O)C1C(=O)c2c([nH]c(C(=O)OC3CCCC3C)c2C)CC1C (stereo unspecified)	inactive: -8.42%
O=C(NCc1cccnc1)c1ccc(NC(=O)c2ccco2)cc1	inactive: 36.4%
CCC(Oc1ccccc1)C(=O)N1CCN(c2ccccn2)CC1 (stereo unspecified)	active: -132%
O=C(Oc1cc2oc(=O)c3c(c2cc1Cl)CCCC3)c1ccco1	inconclusive: -55.1%
Nc1nc(NCC2CCCO2)nc(NCC2CCCO2)c1[N+](=O)[O-] (stereo unspecified)	inactive: 63.7%
O=C(CSc1ncnc2c1oc1ccccc12)Nc1nc2ccccc2s1	inconclusive: -54.5%
CCOc1ccc(NC(=O)CCN2CCN(S(=O)(=O)c3cc(Cl)ccc3OC)CC2)cc1	inconclusive: -72.8%
